Test results taken from the supplement of paper PMC10849652.
Some of the results follow.

By UniProt entry, the sequences of proteins in these tests, tags left out. Where a name states a change or a piece, a line headed by the entry shows the natural chain unless it says otherwise.
UniProt P27707: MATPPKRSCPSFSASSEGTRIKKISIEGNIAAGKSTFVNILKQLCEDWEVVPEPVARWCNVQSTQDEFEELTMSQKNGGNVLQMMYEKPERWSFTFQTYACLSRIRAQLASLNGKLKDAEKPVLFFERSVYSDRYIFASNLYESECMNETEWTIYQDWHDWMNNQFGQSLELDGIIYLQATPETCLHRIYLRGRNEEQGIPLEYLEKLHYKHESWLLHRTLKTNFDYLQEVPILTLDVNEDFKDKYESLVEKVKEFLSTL
UniProt Q8NCG7: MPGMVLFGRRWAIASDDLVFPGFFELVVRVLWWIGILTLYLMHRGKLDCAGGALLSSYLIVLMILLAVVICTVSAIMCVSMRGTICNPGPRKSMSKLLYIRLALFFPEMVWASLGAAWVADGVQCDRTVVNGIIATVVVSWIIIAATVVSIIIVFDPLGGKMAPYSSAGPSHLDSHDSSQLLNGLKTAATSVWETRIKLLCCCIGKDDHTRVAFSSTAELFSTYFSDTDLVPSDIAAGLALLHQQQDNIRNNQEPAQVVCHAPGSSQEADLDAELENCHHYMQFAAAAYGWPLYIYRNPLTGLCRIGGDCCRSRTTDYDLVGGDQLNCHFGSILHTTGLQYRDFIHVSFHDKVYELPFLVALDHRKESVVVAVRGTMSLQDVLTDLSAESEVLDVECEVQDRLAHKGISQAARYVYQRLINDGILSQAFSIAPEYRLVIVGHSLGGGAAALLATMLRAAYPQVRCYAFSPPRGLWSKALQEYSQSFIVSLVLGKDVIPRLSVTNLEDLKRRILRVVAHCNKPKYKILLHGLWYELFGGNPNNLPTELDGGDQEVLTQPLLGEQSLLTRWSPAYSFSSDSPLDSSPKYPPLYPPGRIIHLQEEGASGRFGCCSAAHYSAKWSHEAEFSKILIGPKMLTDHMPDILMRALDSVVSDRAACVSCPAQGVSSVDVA
UniProt P61962: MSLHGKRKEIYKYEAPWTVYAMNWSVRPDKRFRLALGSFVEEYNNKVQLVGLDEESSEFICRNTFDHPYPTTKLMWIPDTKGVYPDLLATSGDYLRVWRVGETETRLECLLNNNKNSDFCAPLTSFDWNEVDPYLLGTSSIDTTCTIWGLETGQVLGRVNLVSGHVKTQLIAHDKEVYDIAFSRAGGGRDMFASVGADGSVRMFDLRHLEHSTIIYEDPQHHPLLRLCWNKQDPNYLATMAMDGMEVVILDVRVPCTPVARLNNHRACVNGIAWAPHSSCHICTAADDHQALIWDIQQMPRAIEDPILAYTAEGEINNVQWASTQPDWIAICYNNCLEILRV
UniProt O43583: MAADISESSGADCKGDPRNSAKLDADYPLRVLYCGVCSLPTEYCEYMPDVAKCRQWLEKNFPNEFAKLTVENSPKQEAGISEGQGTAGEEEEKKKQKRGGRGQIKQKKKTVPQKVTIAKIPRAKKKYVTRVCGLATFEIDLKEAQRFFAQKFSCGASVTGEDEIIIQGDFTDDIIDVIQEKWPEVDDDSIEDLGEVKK
UniProt Q8TEB1, whole entry, looked up: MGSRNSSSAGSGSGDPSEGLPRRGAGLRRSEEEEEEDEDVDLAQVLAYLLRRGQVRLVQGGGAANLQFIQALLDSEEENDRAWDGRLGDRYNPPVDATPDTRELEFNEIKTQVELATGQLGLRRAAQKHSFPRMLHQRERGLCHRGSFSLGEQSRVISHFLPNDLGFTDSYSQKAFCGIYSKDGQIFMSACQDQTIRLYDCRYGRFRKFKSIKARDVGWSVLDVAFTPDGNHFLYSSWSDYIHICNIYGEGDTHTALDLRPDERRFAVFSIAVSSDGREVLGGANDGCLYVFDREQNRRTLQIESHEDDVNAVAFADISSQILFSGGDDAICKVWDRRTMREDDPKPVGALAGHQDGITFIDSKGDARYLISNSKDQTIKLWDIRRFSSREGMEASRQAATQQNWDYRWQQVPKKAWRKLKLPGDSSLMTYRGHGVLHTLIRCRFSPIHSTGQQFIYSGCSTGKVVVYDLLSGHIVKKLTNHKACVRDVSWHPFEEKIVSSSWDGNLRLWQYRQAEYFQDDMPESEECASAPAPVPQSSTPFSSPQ
UniProt P39656: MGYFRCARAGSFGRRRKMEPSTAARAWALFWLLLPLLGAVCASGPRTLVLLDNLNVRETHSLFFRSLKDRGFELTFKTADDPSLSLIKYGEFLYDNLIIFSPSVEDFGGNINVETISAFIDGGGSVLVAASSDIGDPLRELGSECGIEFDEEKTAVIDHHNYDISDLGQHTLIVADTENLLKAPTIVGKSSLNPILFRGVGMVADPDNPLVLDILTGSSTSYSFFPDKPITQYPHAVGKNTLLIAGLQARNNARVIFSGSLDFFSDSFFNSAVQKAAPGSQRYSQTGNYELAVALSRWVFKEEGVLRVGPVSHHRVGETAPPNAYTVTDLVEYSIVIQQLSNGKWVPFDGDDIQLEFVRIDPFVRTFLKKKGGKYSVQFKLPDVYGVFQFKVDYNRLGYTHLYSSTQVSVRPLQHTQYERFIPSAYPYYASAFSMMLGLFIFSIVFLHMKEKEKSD
UniProt O00571: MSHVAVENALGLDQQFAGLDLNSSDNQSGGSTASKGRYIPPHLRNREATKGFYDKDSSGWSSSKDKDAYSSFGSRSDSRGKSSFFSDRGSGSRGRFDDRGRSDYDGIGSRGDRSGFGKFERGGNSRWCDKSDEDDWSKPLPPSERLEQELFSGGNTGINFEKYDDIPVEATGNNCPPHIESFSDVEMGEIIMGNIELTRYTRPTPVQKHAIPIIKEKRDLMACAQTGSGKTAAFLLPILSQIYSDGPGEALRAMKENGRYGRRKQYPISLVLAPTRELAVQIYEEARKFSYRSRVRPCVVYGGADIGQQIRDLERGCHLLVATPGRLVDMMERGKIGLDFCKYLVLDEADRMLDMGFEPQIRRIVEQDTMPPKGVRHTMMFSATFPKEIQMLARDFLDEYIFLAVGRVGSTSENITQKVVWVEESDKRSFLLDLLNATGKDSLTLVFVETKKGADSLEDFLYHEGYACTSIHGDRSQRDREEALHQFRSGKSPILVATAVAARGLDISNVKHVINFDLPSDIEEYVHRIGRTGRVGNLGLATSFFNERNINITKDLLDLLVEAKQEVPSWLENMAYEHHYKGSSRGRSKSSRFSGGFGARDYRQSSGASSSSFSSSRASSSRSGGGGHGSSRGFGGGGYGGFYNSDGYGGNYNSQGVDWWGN
UniProt O00273: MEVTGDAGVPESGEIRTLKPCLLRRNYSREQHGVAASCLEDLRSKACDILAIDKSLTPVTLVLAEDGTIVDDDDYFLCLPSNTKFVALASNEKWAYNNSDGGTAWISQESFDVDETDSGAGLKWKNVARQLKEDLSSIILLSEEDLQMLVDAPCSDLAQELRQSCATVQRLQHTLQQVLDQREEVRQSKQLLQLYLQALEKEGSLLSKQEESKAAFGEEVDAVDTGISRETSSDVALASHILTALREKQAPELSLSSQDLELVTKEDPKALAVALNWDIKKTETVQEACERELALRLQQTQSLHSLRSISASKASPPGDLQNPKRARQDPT
UniProt Q9NPI6: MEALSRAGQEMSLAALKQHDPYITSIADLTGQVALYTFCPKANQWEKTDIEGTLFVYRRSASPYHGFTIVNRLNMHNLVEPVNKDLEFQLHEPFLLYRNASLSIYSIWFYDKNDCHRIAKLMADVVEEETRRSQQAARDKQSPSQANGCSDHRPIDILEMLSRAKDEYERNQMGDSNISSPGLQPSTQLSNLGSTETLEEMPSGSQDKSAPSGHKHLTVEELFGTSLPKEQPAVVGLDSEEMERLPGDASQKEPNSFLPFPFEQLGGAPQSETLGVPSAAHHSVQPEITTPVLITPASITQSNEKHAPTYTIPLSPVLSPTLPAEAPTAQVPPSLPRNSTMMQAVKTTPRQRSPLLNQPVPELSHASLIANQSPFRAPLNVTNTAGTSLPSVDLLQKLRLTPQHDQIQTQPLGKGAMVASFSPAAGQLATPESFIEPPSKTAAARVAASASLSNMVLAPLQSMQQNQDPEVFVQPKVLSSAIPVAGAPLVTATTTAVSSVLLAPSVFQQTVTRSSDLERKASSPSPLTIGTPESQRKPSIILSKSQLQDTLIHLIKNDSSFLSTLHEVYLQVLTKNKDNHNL
UniProt Q9UJU6: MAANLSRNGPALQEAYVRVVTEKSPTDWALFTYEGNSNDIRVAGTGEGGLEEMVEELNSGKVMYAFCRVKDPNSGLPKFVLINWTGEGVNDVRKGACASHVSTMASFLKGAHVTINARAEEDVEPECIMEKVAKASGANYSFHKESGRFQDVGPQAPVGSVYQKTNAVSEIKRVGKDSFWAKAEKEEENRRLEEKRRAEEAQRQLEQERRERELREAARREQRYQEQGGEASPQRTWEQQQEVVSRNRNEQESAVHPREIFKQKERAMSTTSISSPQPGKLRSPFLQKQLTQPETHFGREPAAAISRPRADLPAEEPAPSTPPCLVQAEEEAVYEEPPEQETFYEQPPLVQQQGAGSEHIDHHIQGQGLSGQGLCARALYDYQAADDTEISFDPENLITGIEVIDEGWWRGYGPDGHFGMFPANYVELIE
UniProt O75935, whole entry, looked up: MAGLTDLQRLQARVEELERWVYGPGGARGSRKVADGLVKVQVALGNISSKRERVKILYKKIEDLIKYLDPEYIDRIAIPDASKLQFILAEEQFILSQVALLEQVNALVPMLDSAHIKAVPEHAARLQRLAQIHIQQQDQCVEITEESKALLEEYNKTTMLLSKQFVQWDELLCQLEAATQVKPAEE
UniProt Q14118: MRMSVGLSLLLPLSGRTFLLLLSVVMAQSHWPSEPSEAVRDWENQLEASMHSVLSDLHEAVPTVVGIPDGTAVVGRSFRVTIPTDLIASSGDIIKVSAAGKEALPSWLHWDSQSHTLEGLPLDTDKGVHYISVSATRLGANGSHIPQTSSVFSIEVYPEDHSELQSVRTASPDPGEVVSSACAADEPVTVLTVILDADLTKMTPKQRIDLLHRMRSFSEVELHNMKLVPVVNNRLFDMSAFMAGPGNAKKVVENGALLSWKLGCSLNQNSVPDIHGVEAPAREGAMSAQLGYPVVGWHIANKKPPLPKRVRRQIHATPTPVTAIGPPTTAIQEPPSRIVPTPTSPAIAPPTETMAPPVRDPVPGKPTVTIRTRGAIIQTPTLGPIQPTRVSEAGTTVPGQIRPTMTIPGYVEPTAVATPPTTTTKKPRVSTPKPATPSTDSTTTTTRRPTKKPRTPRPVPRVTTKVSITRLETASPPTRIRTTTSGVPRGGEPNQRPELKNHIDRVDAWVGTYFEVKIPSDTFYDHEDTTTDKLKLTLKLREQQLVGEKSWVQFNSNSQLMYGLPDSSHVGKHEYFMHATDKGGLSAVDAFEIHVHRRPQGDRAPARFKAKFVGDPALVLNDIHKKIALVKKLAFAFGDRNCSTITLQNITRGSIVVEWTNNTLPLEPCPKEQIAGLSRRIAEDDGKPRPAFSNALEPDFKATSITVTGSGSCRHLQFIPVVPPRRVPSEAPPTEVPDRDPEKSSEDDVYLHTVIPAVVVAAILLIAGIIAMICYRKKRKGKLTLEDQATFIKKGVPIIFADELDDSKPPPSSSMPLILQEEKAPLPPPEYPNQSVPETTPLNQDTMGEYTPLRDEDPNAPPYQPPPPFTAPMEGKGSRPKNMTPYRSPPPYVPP
UniProt P0CG12: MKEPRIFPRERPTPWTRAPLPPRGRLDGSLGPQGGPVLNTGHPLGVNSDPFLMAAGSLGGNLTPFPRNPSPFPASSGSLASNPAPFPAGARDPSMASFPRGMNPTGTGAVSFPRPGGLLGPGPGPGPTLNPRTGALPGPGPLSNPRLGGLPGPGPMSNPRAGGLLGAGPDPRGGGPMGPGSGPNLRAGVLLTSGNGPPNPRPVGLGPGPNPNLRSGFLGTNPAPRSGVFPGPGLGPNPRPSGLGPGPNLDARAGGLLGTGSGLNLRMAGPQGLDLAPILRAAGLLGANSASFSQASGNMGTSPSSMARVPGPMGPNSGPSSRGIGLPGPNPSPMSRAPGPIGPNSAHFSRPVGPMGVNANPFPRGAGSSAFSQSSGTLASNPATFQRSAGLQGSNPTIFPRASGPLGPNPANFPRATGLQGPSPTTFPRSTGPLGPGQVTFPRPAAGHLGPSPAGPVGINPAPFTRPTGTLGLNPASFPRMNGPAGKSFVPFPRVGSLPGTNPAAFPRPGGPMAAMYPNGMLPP
UniProt Q13838, whole entry, looked up: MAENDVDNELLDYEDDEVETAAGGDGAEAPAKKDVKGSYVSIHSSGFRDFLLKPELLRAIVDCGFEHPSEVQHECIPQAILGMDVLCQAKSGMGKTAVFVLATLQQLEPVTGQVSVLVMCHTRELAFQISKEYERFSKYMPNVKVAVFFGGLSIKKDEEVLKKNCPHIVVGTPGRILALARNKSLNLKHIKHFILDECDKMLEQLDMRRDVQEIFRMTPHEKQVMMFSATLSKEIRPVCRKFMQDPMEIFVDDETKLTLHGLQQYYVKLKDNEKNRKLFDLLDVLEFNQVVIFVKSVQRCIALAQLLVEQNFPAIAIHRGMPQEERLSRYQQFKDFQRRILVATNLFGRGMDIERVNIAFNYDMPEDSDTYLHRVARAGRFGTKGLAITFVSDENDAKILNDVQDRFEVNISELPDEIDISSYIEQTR

Key:
Assay in all cases: log2 fold change, soluble protein after heating vs DMSO (PISA); higher = thermal stabilisation; K562 lysate, 10 uM; active = over 0.2 and 3.5 SD of the protein, either way, in both replicates (recomputed)
vemurafenib = compound: CCCS(=O)(=O)Nc1ccc(F)c(C(=O)c2c[nH]c3ncc(-c4ccc(Cl)cc4)cc23)c1F [vemurafenib]
In short: (§1)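 Values give the log-two fold change in thermal stability against solvent controls, from duplicates. Crude K562 extract at 1 mg/mL protein, made by dounce homogenisation in PBS pH 7.4 with 1 mM MgCl2, was treated with 10 μM compound for 30 min. After 3 min heating across 48°C-58°C, aliquots were pooled, adjusted to 0.5% NP-40 at 4°C and centrifuged at 21,000xg for 90 min. The supernatant was measured by TMTpro 16plex LC-MS/MS with channel sums equalised.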

[1] = compound: CCCS(=O)(=O)Nc1ccc(F)c(C(=O)c2c[nH]c3ncc(Cl)cc23)c1F
In short: as §1

barasertib = compound: CCN(CCCOc1ccc2c(Nc3cc(CC(=O)Nc4cccc(F)c4)[nH]n3)ncnc2c1)CCOP(=O)(O)O [barasertib]
In short: as §1

[2] = compound: CC[C@@H]1C(=O)N(C)c2cnc(Nc3ccc(C(=O)NC4CCN(C)CC4)cc3OC)nc2N1C1CCCC1
In short: as §1

volasertib = compound: CC[C@@H]1C(=O)N(C)c2cnc(Nc3ccc(C(=O)N[C@H]4CC[C@H](N5CCN(CC6CC6)CC5)CC4)cc3OC)nc2N1C(C)C [volasertib]
In short: as §1

[3] = compound: CCn1c(C(=O)N(C2CC2)C2CC2)cc2c3c(ncn3C)c(Nc3cc(C)n(C)n3)nc21
In short: as §1

[4] = compound: CCn1cc(-c2ccnc3[nH]c(-c4cccc(CN(C)C)c4)cc23)c(-c2ccc(NC(=O)N(C)C)cc2)n1
In short: as §1

[5] = compound: CN1CCC(CNc2ccc3ncc(-c4cccc(OC(F)(F)F)c4)n3n2)CC1
In short: as §1

saracatinib = compound: CN1CCN(CCOc2cc(OC3CCOCC3)c3c(Nc4c(Cl)ccc5c4OCO5)ncnc3c2)CC1 [saracatinib]
In short: as §1

sotrastaurin = compound: CN1CCN(c2nc(C3=C(c4c[nH]c5ccccc45)C(=O)NC3=O)c3ccccc3n2)CC1 [sotrastaurin]
In short: as §1

alvocidib = compound: CN1CC[C@H](c2c(O)cc(O)c3c(=O)cc(-c4ccccc4Cl)oc23)[C@H](O)C1 [alvocidib]
In short: as §1

Tubastatin A = compound: CN1CCc2c(c3ccccc3n2Cc2ccc(C(=O)NO)cc2)C1 [Tubastatin A]
In short: as §1

[6] = compound: CNC(=O)C1=CC=CC=C1NC2=NC(=NC=C2Cl)NC3=C(C=C(C=C3)N4CCOCC4)OC
In short: as §1

defactinib = compound: CNC(=O)c1ccc(Nc2ncc(C(F)(F)F)c(NCc3nccnc3N(C)S(C)(=O)=O)n2)cc1 [defactinib]
In short: as §1

[7] = compound: CNc1nc(-c2ccc3c(N)n[nH]c3c2)cc(N2C[C@@H](C(=O)NC3CCCCC3)CC[C@H]2C)n1
In short: as §1

encorafenib = compound: COC(=O)N[C@@H](C)CNc1nccc(-c2cn(C(C)C)nc2-c2cc(Cl)cc(NS(C)(=O)=O)c2F)n1 [encorafenib]
In short: as §1

[8] = compound: COC(=O)[C@H](CCSC)NC(=O)C1=C(C=C(C=C1)NC[C@H](CS)N)C2=CC=CC=C2
In short: as §1

alisertib = compound: COc1cc(Nc2ncc3c(n2)-c2ccc(Cl)cc2C(c2c(F)cccc2OC)=NC3)ccc1C(=O)O [alisertib]
In short: as §1

[9] = compound: COc1cc2nc(-c3cc(F)ccc3O)nc(N[C@@H]3CNC[C@H]3C(C)(C)O)c2cc1OC
In short: as §1

gefitinib = compound: COc1cc2ncnc(Nc3ccc(F)c(Cl)c3)c2cc1OCCCN1CCOCC1 [gefitinib]
In short: as §1

Measured: log2 fold change

DCK (UniProt P27707)
inactive: vemurafenib 0.017 | [1] 0.005 | barasertib -0.008 | [2] 0.06 | volasertib 0.099 | [3] -0.027 | [4] 0.188 | [5] -0.058 | saracatinib 0.007 | sotrastaurin 0.024 | alvocidib 0.021 | Tubastatin A -0.007 | [6] 0.052 | defactinib -0.02 | [7] 0.038 | encorafenib -0.049 | [8] 0.041 | alisertib -0.025 | [9] -0.021 | gefitinib -0.011

DAGLB (UniProt Q8NCG7)
inactive: vemurafenib 0.042 | [1] -0.02 | barasertib -0.016 | [2] -0.012 | volasertib -0.011 | [3] -0.039 | [4] 0.03 | [5] 0.092 | saracatinib -0.04 | sotrastaurin -0.037 | alvocidib 0.029 | Tubastatin A 0.04 | [6] -0.013 | defactinib 0.023 | [7] -0.011 | encorafenib -0.001 | [8] 0.066 | alisertib 0.041 | [9] 0.075 | gefitinib 0.067

DCAF7 (UniProt P61962)
inactive: vemurafenib 0.014 | [1] 0.034 | barasertib 0.042 | [2] -0.013 | volasertib -0.003 | [3] 0.051 | [4] 0.01 | [5] 0.037 | saracatinib 0.022 | sotrastaurin 0.006 | alvocidib 0.015 | Tubastatin A -0.054 | [6] 0.037 | defactinib -0.011 | [7] 0.009 | encorafenib 0.015 | [8] 0.029 | alisertib 0.017 | [9] 0.01 | gefitinib -0.032

DDX47 (UniProt Q9H0S4)
inactive: vemurafenib 0.06 | [1] 0.027 | barasertib 0.101 | [2] -0.002 | volasertib 0.008 | [3] 0.025 | [4] -0.202 | [5] 0.069 | saracatinib 0.019 | sotrastaurin 0.021 | alvocidib 0 | Tubastatin A -0.023 | [6] 0.072 | defactinib 0.046 | [7] 0.051 | encorafenib 0.014 | [8] 0.032 | alisertib -0.005 | [9] -0.012 | gefitinib -0.015

DENR (UniProt O43583)
inactive: vemurafenib -0.005 | [1] -0.051 | barasertib -0.031 | [2] 0.036 | volasertib 0.034 | [3] 0.02 | [4] 0.07 | [5] 0.007 | saracatinib -0.017 | sotrastaurin -0.029 | alvocidib 0.01 | Tubastatin A 0.038 | [6] -0.027 | defactinib 0.028 | [7] -0.013 | encorafenib -0.027 | [8] -0.002 | alisertib 0.018 | [9] -0.008 | gefitinib -0.021

DCAF11 (UniProt Q8TEB1)
inactive: vemurafenib 0 | [1] -0.012 | barasertib 0.039 | [2] -0.004 | volasertib -0.005 | [3] -0.023 | [4] 0.107 | [5] 0.021 | saracatinib -0.018 | sotrastaurin -0.039 | alvocidib -0.01 | Tubastatin A 0.018 | [6] 0.015 | defactinib 0.015 | [7] 0.071 | encorafenib 0.02 | [8] 0.078 | alisertib 0.028 | [9] 0.044 | gefitinib -0.028

DDOST (UniProt P39656)
inactive: vemurafenib 0.032 | [1] -0.006 | barasertib -0.011 | [2] 0.017 | volasertib 0.016 | [3] -0.051 | [4] -0.121 | [5] 0.072 | saracatinib 0.005 | sotrastaurin 0.01 | alvocidib -0.048 | Tubastatin A 0.032 | [6] -0.031 | defactinib -0.027 | [7] 0.016 | encorafenib -0.01 | [8] -0.02 | alisertib 0.01 | [9] -0.034 | gefitinib 0.04

DDX3X (UniProt O00571)
inactive: vemurafenib 0.052 | [1] 0.014 | barasertib -0.022 | [2] -0.074 | volasertib -0.021 | [3] 0.027 | [4] -0.122 | [5] -0.027 | saracatinib 0.027 | sotrastaurin -0.002 | alvocidib -0.062 | Tubastatin A -0.229 | [6] 0.049 | defactinib -0.007 | [7] -0.022 | encorafenib 0.018 | [8] 0.012 | alisertib 0.01 | [9] -0.002 | gefitinib 0.155

DFFA (UniProt O00273)
inactive: vemurafenib -0.025 | [1] 0.03 | barasertib -0.043 | [2] 0.038 | volasertib 0.021 | [3] 0.013 | [4] 0.011 | [5] 0.021 | saracatinib -0.035 | sotrastaurin -0.047 | alvocidib 0.007 | Tubastatin A 0.016 | [6] 0.023 | defactinib 0.014 | [7] 0.018 | encorafenib -0.006 | [8] -0.009 | alisertib 0.01 | [9] -0.016 | gefitinib -0.053

DCP1A (UniProt Q9NPI6)
inactive: vemurafenib 0.023 | [1] 0.017 | barasertib -0.066 | [2] 0.077 | volasertib -0.055 | [3] 0.029 | [4] -0.082 | [5] 0.059 | saracatinib -0.006 | sotrastaurin -0.053 | alvocidib -0.002 | Tubastatin A 0 | [6] 0.003 | defactinib 0.033 | [7] 0 | encorafenib 0.006 | [8] -0.046 | alisertib -0.074 | [9] 0.026 | gefitinib 0.022

DBNL isoform 3 (UniProt Q9UJU6)
inactive: vemurafenib 0.011 | [1] 0.004 | barasertib -0.025 | [2] 0.029 | volasertib 0.02 | [3] -0.023 | [4] -0.052 | [5] 0.02 | saracatinib 0.012 | sotrastaurin -0.02 | alvocidib -0.017 | Tubastatin A 0.027 | [6] -0.019 | defactinib 0.034 | [7] 0.023 | encorafenib -0.019 | [8] -0.021 | alisertib -0.026 | [9] 0.018 | gefitinib 0.009

DCTN3 (UniProt O75935)
inactive: vemurafenib 0.016 | [1] -0.003 | barasertib 0.036 | [2] -0.03 | volasertib -0.003 | [3] 0.025 | [4] 0.007 | [5] -0.021 | saracatinib -0.011 | sotrastaurin -0.025 | alvocidib 0.041 | Tubastatin A -0.018 | [6] 0.012 | defactinib 0.011 | [7] -0.028 | encorafenib 0.003 | [8] 0.048 | alisertib 0.003 | [9] -0.007 | gefitinib -0.019

DAG1 (UniProt Q14118)
inactive: vemurafenib 0 | [1] 0.012 | barasertib -0.001 | [2] 0.032 | volasertib 0.04 | [3] -0.046 | [4] -0.118 | [5] 0.117 | saracatinib -0.013 | sotrastaurin 0.011 | alvocidib -0.077 | Tubastatin A 0.058 | [6] 0.065 | defactinib 0.039 | [7] 0.036 | encorafenib -0.011 | [8] 0.017 | alisertib -0.001 | [9] -0.005 | gefitinib -0.01

DCTN1 (UniProt Q14203)
inactive: vemurafenib -0.025 | [1] 0.008 | barasertib 0.021 | [2] -0.021 | volasertib -0.048 | [3] 0.002 | [4] 0.034 | [5] -0.034 | saracatinib 0.029 | sotrastaurin -0.003 | alvocidib 0.03 | Tubastatin A -0.048 | [6] 0.009 | defactinib 0.008 | [7] -0.02 | encorafenib 0.008 | [8] 0.119 | alisertib -0.019 | [9] 0.01 | gefitinib -0.002

2 consecutive records out of the list so far, for reference:
DBNL isoform 3 (UniProt Q9UJU6)
inactive: vemurafenib 0.011 | [1] 0.004 | barasertib -0.025 | [2] 0.029 | volasertib 0.02 | [3] -0.023 | [4] -0.052 | [5] 0.02 | saracatinib 0.012 | sotrastaurin -0.02 | alvocidib -0.017 | Tubastatin A 0.027 | [6] -0.019 | defactinib 0.034 | [7] 0.023 | encorafenib -0.019 | [8] -0.021 | alisertib -0.026 | [9] 0.018 | gefitinib 0.009

DCTN3 (UniProt O75935)
inactive: vemurafenib 0.016 | [1] -0.003 | barasertib 0.036 | [2] -0.03 | volasertib -0.003 | [3] 0.025 | [4] 0.007 | [5] -0.021 | saracatinib -0.011 | sotrastaurin -0.025 | alvocidib 0.041 | Tubastatin A -0.018 | [6] 0.012 | defactinib 0.011 | [7] -0.028 | encorafenib 0.003 | [8] 0.048 | alisertib 0.003 | [9] -0.007 | gefitinib -0.019

(listing goes on)

DERPC (UniProt P0CG12)
inactive: vemurafenib 0.044 | [1] -0.107 | barasertib 0.104 | [2] 0.095 | volasertib 0.15 | [3] 0.158 | [4] 0.152 | [5] -0.106 | saracatinib 0.105 | sotrastaurin -0.271 | alvocidib 0.031 | Tubastatin A 0.157 | [6] -0.015 | defactinib 0.135 | [7] 0.072 | encorafenib 0.053 | [8] 0.023 | alisertib 0.059 | [9] -0.074 | gefitinib -0.16

DDX39B isoform 2 (UniProt Q13838)
inactive: vemurafenib -0.017 | [1] -0.006 | barasertib 0.018 | [2] -0.08 | volasertib -0.013 | [3] 0.011 | [4] -0.038 | [5] 0.005 | saracatinib -0.024 | sotrastaurin -0.017 | alvocidib -0.016 | Tubastatin A -0.001 | [6] 0.005 | defactinib -0.012 | [7] 0.001 | encorafenib -0.022 | [8] 0.028 | alisertib 0.008 | [9] -0.02 | gefitinib 0.007
